Tested on: scopolamine-induced amnesia in mice
Test: Elevated plus maze (EPM), scopolamine-induced amnesia
Type: in vivo, Balb/C mice
Conditions: scopolamine 1 mg/kg i.p. alone, negative control (amnesic group); n = 6
Method: Balb/C mice iwth a weight of (17–23 gm) were procured from the NIH (National Institute of Health), Islamabad, which were kept for breeding under favorable conditions in the animal house of the Pharmacy Department, Shaheed Benazir Bhutto University Sheringal Dir (Upper). Light/dark cycle of about 12 h each was maintained, with relative humidity of 50–55% at 22–25 °C. This work was conducted with approval from the Departmental Ethical Committee (SBBU/IEC-20-02) of the Scientific Procedure Issue-I of the University of Malakand in compliance with provision of the 2008 Animal Byelaws.
Mice were divided into thirteen groups with 6 mice in each group.
Group I. Normal control group (vehicle treated) received 10 mL/kg (i.p.) normal saline.
Group IV–XIII. Sample (curcumin analog)-treated groups. Synthesized curcumin analogs were administered in doses of 7.5 mg/kg and 15 mg/kg (p.o.), respectively.
The groups were kept for 7 days at various treatments doses.
The EPM consisted of two open arms and two closed arms with dimensions of 16 cm × 5 cm × 12 cm, and was made from two poly acrylic sheets and designed as a plus sign with a central platform with dimensions of 5 cm × 5 cm, which was elevated 25 cm from the floor on a wooden stand. […]

SMILES: CN1[C@@H]2C[C@@H](OC(=O)[C@H](CO)c3ccccc3)C[C@H]1[C@@H]1O[C@@H]12 [Scopolamine, reference compound]
- Retention (transfer latency time, TLT): 67.31 ± 1.24 s
